In US20110045103A1, “METHODS FOR TREATING AIDS” (priority 2009, published 2011):
At least one compound was matched to its structure with a doubt left.

Test system: human immunodeficiency virus (HIV) Type I, strain HTLV-IIIB
Test: Virucidal efficacy assay: virus suspension exposed to test composition, then titered by infectivity (CPE) in MT-2 cells
Format: cell-based, HIV Type 1
Description: Composition Tested: A 20 mL vial of ammonium chloride (100 mEq/5 mL) was dissolved into a 1 liter bag of 0.9% sodium chloride injection USP (9 g/L sodium chloride; osmolarity of 308 mOsmol/L; 154 mEq/L sodium; 154 mEq/L chloride). The contents of the bag were transferred to a sterile glass bottle. The solution was equilibrated to room temperature prior to use.
Virus: human immunodeficiency virus (HIV) Type I, strain HTLV-IIIB, was obtained from Advanced Biotechnologies, Inc., Columbia, Md. Stock virus was prepared by collecting the supernatant culture fluid from infected culture cells. The cells were disrupted and cell debris removed by centrifugation at approximately 2200 RPM for ten minutes at room temperature. The supernatant was removed, aliquoted, and the high titer stock virus was stored at ≦−70° C. until the day of use. […]
Cells in the multiwall culture dishes were inoculated in quadruplicate with 0.2 mL of the dilutions prepared from test and control groups. […] The cultures were scored periodically for eight days for the absence or presence of CPE, cytotoxicity, and for viability.
Data analysis: Viral and cytotoxicity titers are expressed as −log 10 of the 50 percent titration endpoint for infectivity (TCID50) or cytotoxicity (TCD50), respectively, as calculated by the method of Spearman Karber: […]

Cl.N [Ammonium Chloride, ammonium chloride]
Presence of test virus, four cultures (dilution 10^-5, after ten minute exposure): 0 0 + + | TCID50/0.2 mL (virus titer after exposure to test composition) (ten minute exposure at 37° C., 5% fetal bovine serum, virus control 10^6.0): 10^5.0 TCID50/0.2 mL
